In PubChem BioAssay AID602313 (National Center for Advancing Translational Sciences (NCATS), 2012):
The campaign covered roughly 390,000 compounds. About 760 (0.19%) were called active. The inconclusive results got no clear call from the source; some entries with a clear call stand among them for comparison. Calls come from the whole dose curve; as a rule, active = well fitted inhibition curve with a large enough effect; inconclusive = small, poorly fitted or top-dose-only effect; inactive = flat fitted curve, though single readings scatter. Potencies beside an inconclusive call are fits to weak or partial responses and may not hold up.

Assay: qHTS for Inhibitors of Vif-A3F Interactions: qHTS; note: nearly all actives have a fitted effect of over 65% in size
Conditions: HeLa A3F-eYFP + Vif (tagged APOBEC3F with the HIV-1 protein that degrades it), YFP fluorescence increase; series mostly up to 46.1 µM
Summary of the method: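 HeLa cells stably expressing Vif plus C-terminally eYFP-tagged A3F were seeded, incubated overnight at 37 deg C, dosed with compound, incubated overnight again at 37 deg C. Yellow fluorescence (Ex 488/Em 500-530) reported blocked Vif-mediated A3F-eYFP degradation.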
Potency is the fitted concentration of half-maximal effect.

Compound	Potency
COc1ccccc1Nc1nn2c(=O)c3ccc(C(=O)NCCC4=CCCCC4)cc3nc2s1	inconclusive: 6.31 µM [inhibitor, partial curve, poor fit]
c1ccc(-c2csc(NNC3=NCCCCC3)n2)cc1	inactive
Cc1c(=O)n(OCc2cccc(F)c2)c2ccccc2[n+]1[O-]	inconclusive: 35.5 µM [inhibitor, single point]
COc1ccc(-c2n[nH]c(=S)n2-c2ccc(C)cc2)cc1	inconclusive: 22.4 µM [inhibitor, single point]
Fc1ccc(OCc2nc3ccccc3s2)cc1	inconclusive: 8.91 µM [inhibitor, partial curve, poor fit]
CN(C)c1ccc(/C=N/NC(=O)c2cnc3ccccc3c2)cc1	inconclusive: 35.5 µM [inhibitor, single point]
COCCNC(=S)NN=C1CCC(c2ccccc2)CC1 (configuration not stated)	inconclusive: 25.1 µM [inhibitor, single point]
CCOc1cc(/C=C/C(=O)N(CC)CC(=O)NCc2cccs2)cc(Cl)c1OC	inactive
COc1ccc(-n2c(O)c(C=Nc3ccccc3)c3ccccc3c2=O)cc1	inactive
Cc1cc(NC(=O)CSc2nc3c(C)ccc(C)c3cc2C#N)no1	inconclusive: 35.5 µM [inhibitor, single point]
Cn1c(/C(C#N)=C/c2ccc(-c3ccc(S(N)(=O)=O)cc3)o2)nc2ccccc21	inconclusive: 3.98 µM [inhibitor, partial curve, poor fit]
Cc1cc([N+](=O)[O-])ccc1-c1ccc(/C=N/NC(=O)Cc2ccccc2)o1	inconclusive: 17.8 µM [inhibitor, single point]
C=C(C)Cn1c(SCC(=O)N/N=C/c2c(O)ccc3ccccc23)nc2ccccc2c1=O	inconclusive: 25.1 µM [inhibitor, single point]
CN(C)c1ccc(/C=C(/C(=O)c2ccc(Cl)cc2Cl)n2cncn2)cc1	inconclusive: 25.1 µM [inhibitor, single point]
CCN1CCN(C(=O)c2ccc(OCC(=O)Nc3ccc(F)cc3)c(OC)c2)CC1	inconclusive: 3.16 µM [inhibitor, single point]
CC1(C)CC(=O)C2=C(C1)Nc1cc3c(cc1C2c1ccc2c(c1)OCO2)OCO3 (configuration not stated)	inactive
COCCCNC(=S)N/N=C/c1ccc2ccccc2c1	inconclusive: 3.98 µM [inhibitor, full curve, poor fit]
C=CCc1c(C)nc2c(-c3ccccc3)cnn2c1N1CCOCC1	inconclusive: 35.5 µM [inhibitor, single point]
O=C(CCc1nc2sc3c(c2c(=O)[nH]1)CCCC3)N1CCN(c2ccccc2)CC1	inconclusive: 22.4 µM [inhibitor, single point]
CCCC1=NN2C(=N)/C(=C\c3cc(C)n(-c4cc(C)cc(C)c4)c3C)C(=O)N=C2S1	inconclusive: 35.5 µM [inhibitor, single point]
Cc1sc(-n2c(C)cc(/C=C3\SC(=S)NC3=O)c2C)c(C#N)c1C	inconclusive: 12.6 µM [inhibitor, partial curve, poor fit]
Cc1nc(NC(=O)c2ccccc2)sc1-c1csc(NCc2ccccc2)n1	inactive
CCCC1(CCC)NC(=O)N(CC(=O)Nc2ccc(Cl)c(S(=O)(=O)N3CCOCC3)c2)C1=O	inactive

Some values from the list:
Under Potency, CN(C)c1ccc(/C=C(/C(=O)c2ccc(Cl)cc2Cl)n2cncn2)cc1 shows inconclusive: 25.1 µM [inhibitor, single point]
Under Potency, COCCNC(=S)NN=C1CCC(c2ccccc2)CC1 (configuration not stated) shows inconclusive: 25.1 µM [inhibitor, single point]
Under Potency, Fc1ccc(OCc2nc3ccccc3s2)cc1 shows inconclusive: 8.91 µM [inhibitor, partial curve, poor fit]

Following part

Compound	Potency
CCN1CCc2nc3sc(C(=O)c4ccc(F)cc4)c(N)c3cc2C1	inconclusive: 31.6 µM [inhibitor, single point]
O=C(NCCOC(=O)c1ccc(Cl)cc1)c1cccnc1	inactive
Cc1nc(-n2[nH]c3c(c2=O)CCCC3)[nH]c(=O)c1Cc1ccccc1	inconclusive: 20 µM [inhibitor, partial curve, poor fit]
COC(=O)c1ccc2c(c1)C(C)(C)C(/C=C/c1ccccc1O)=[N+]2C	inconclusive: 6.31 µM [inhibitor, single point]
COc1ccc(C2NC(=S)NC3=C2CCc2cc(OC)ccc23)cc1 (configuration not stated)	inactive
CC(CCc1ccc(O)cc1)NCCc1ccc(O)c(O)c1 (configuration not stated)	inactive
Cc1ccc(Cl)cc1N1CCN(C(=O)Cn2cnc3sc(C)c(S(=O)(=O)N4CCC(C)CC4)c3c2=O)CC1	inactive
N#C/C(=C\c1cccnc1)C(=O)Nc1cccc(Cl)c1	inconclusive: 35.5 µM [inhibitor, single point]
S=c1[nH]c2ccc(Cl)cc2s1	inconclusive: 12.6 µM [inhibitor, partial curve, poor fit]
Cc1cc(NC(=O)COC(=O)C(Nc2ccc(C(F)(F)F)cc2Cl)C(C)C)no1 (configuration not stated)	inconclusive: 14.1 µM [inhibitor, single point]
C[C@@H]1CN([C@H](C)CO)C(=O)CCCn2cc(nn2)CO[C@H]1CN(C)S(=O)(=O)c1ccc2ccccc2c1	inactive
O=C(Nc1cccc(S(=O)(=O)N2CCCCC2)c1)c1ccc(S(=O)(=O)C(F)F)cc1	inactive
CCc1cc(=O)oc2cc(OC(=O)c3ccco3)ccc12	inactive
Nc1c(C(=O)CSc2nnc(Cc3ccccc3)o2)c(=O)[nH]c(=O)n1C1CC1	inconclusive: 22.4 µM [inhibitor, single point]
CN(C)S(=O)(=O)c1ccc(NC(=O)CN2CCc3ccccc32)cc1	inconclusive: 6.31 µM [inhibitor, single point]
CCOc1cccc(/C=N/NC(=O)C2CCCC2)c1O	inconclusive: 5.01 µM [inhibitor, full curve, poor fit]
CCN(CC)CCCNc1sc(S(=O)(=O)c2ccccc2)nc1S(=O)(=O)c1ccc(Cl)cc1	inconclusive: 35.5 µM [inhibitor, single point]
Cc1cc2nc3c(=O)n(C4CCCCC4)c(=O)[nH]c3nc2cc1N	active: 11.2 µM
COc1ccc(-c2nc(N)nc(C(F)(F)F)c2-c2cscn2)c(O)c1	inactive
COc1cc(NC(=O)c2ccccc2)c(OC)cc1NC(=O)Cc1ccc(Br)cc1	inactive
C=CCNC(=S)Nc1sc2c(c1C(=O)OCC)CC(C)(CC)OC2 (configuration not stated)	inconclusive: 25.1 µM [inhibitor, single point]
S=C1NC[C@H](CC2CCCCC2)N1CC1CCCCC1	inconclusive: 6.31 µM [inhibitor, single point]
CC1=CN2C(=N)/C(=C/c3ccc([N+](=O)[O-])o3)C(=O)N=C2S1	inconclusive: 17.8 µM [inhibitor, partial curve, poor fit]

Compound	Potency
O=C(COc1ccc(Br)cc1F)N1CCN(c2ncccn2)CC1	inconclusive: 22.4 µM [inhibitor, single point]
Cc1cc2ccccn2c1C(=O)c1ccc([N+](=O)[O-])cc1[N+](=O)[O-]	inactive
CCOc1ccc(NC(=O)c2ccc(-c3nc(COc4ccccc4)c(C)o3)cc2)cc1	inactive
COc1ccc(CCc2nnc(CCC(=O)N(C)Cc3ccnc4ccccc34)o2)cc1	inconclusive: 6.31 µM [inhibitor, single point]
COC(=O)C1=C(C)N(CC2CC2)C(=NCc2cccc(C(F)(F)F)c2)N[C@H]1c1ccccc1	inconclusive: 31.6 µM [inhibitor, single point]
CCOc1ccc(CC2S/C(=N/N=C/c3ccco3)NC2=O)cc1 (configuration not stated)	inconclusive: 17.8 µM [inhibitor, partial curve, poor fit]
Oc1ccc(CN2CCCc3ccccc32)c2cccnc12	inconclusive: 25.1 µM [inhibitor, single point]
CCOC(=O)c1ccc(N2CSC3=C(C#N)C(c4cccs4)CC(=O)N3C2)cc1 (configuration not stated)	inactive
O=C(NCCc1ccc(Cl)cc1)C1CCC(CNc2nc(=S)[nH]c3ccccc23)CC1 (configuration not stated)	inconclusive: 17.8 µM [inhibitor, single point]
CCOc1ccccc1NC(=O)C1CCN(S(=O)(=O)c2ccccc2)CC1	inactive
CC(=O)Cc1nsc(NC(=O)c2ccc(-c3cc(C(F)(F)F)ccc3Cl)o2)n1	inactive
COc1ccccc1C(=O)COC(=O)/C(=C/c1ccccc1)NC(C)=O	inconclusive: 5.62 µM [inhibitor, single point]
Cc1cc2cc(C=C(C#N)C#N)c(Cl)nc2cc1C	inconclusive: 17.8 µM [inhibitor, partial curve, poor fit]
CC(C)CCN(Cc1ccco1)C(=O)c1cc2c(Cl)nc3ccccc3c2s1	inactive
COc1ccc([N+](=O)[O-])cc1NC(=S)NC(NC(=O)Cc1ccc(OC)c(OC)c1)C(Cl)(Cl)Cl (configuration not stated)	inconclusive: 11.2 µM [inhibitor, partial curve]
COc1ccc(-c2cc(C)no2)cc1S(=O)(=O)NCCCN1CCCCCC1	inconclusive: 35.5 µM [inhibitor, single point]
c1ccc(CNc2ccc3c(c2)ncn3C2CCCCC2)nc1	inactive
Cc1cccc(NC(=O)c2ccc(N3C(=O)C4C5C=CC(C6CC56)C4C3=O)cc2)c1 (configuration not stated)	inconclusive: 10 µM [inhibitor, partial curve, poor fit]
CCCN(C(=O)c1cccc(-n2cccc2)c1)c1c(N)n(Cc2ccccc2)c(=O)[nH]c1=O	inconclusive: 22.4 µM [inhibitor, single point]
COc1ccc(Cl)cc1NC(=O)CN(C)CC(=O)Nc1ccccc1N1CCOCC1	inconclusive: 0.316 µM [inhibitor, partial curve, poor fit]
Cc1cc(C)c(S(=O)(=O)/N=C2/C=C(Sc3ncn[nH]3)C(=O)c3ccccc32)cc1C	active: 7.08 µM
